Record: PubChem BioAssay AID1053208 (Peter MacCallum Cancer Centre, 2014)
Test: 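Find knock-downs that sensitise mouse osteosarcoma cells to doxorubicin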 (primary screen). Cell system: mouse osteosarcoma cells, early-passage culture from an engineered mouse model of fibroblastic bone tumour. Reagents: siRNA pool against mouse genes, 40 nM. Time to read-out: about 120 h (48 h before drug, then 72 h with drug). Treatment: doxorubicin 100 nM for 72 h, roughly 30-40% inhibitory dose. Read-out: 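Viability read as ATP luminescence after 72 h of 100 nM doxorubicin or none, duplicate wells averaged, scaled to non-targeting siRNA, then expressed as robust z-scores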. Reading the numbers: viability z-score with doxorubicin: higher = more viable cells under doxorubicin; viability z-score without drug: higher = more viable cells with knock-down alone. Call rule: 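a pool counts as active when its viability z-score with doxorubicin is -2 or below and its z-score without drug lies between -2 and 2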.
This is an unselected part of about 17,000 deposited reagents. 788 of all reagents (4.7%) count as active. 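Calls rest on z-score classes alone; an extra cut-off of viability at most 70% of control was not applied to them.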 Entries without a mark were called inactive. The numbers tell different reagents against one gene apart. Further read-outs or replicates are left out here.

Against Idi1 (GeneID 319554), the values are combined z-score class no change with or without drug; viability z-score with doxorubicin -0.9; viability z-score without drug -1.01.
Cabp5 (GeneID 29865) scored combined z-score class no change with or without drug; viability z-score with doxorubicin 0; viability z-score without drug 0.51.
Silencing of Rit2 (GeneID 19762) resulted in: combined z-score class no change with or without drug; viability z-score with doxorubicin 1.8; viability z-score without drug 1.85.
With knock-down of Dus1l (GeneID 68730), the screen gave combined z-score class no change with or without drug; viability z-score with doxorubicin 0.11; viability z-score without drug 1.01.
Silencing of Dock6 (GeneID 319899) gave: combined z-score class no change with or without drug; viability z-score with doxorubicin 0.67; viability z-score without drug 0.51.
Depletion of Or13c7 (GeneID 29845) gave: combined z-score class no change with or without drug; viability z-score with doxorubicin -1.12; viability z-score without drug -1.52.
Depletion of Klf12 (GeneID 16597) came out at: combined z-score class no change with or without drug; viability z-score with doxorubicin -0.9; viability z-score without drug 0.
Knock-down of Gpr65 (GeneID 14744) gave: combined z-score class no change with or without drug; viability z-score with doxorubicin -0.22; viability z-score without drug -0.17.
Usp28 (GeneID 235323) scored combined z-score class low cell count with doxorubicin only (active); viability z-score with doxorubicin -2.02; viability z-score without drug 0.67.
For Zfp287 (GeneID 170740), the values are combined z-score class no change with or without drug; viability z-score with doxorubicin 0.45; viability z-score without drug 0.17.
Against Crygf (GeneID 12969), the entry reads combined z-score class no change with or without drug; viability z-score with doxorubicin 0.45; viability z-score without drug 0.67.
Ddx1 (GeneID 104721) gave combined z-score class no change with or without drug; viability z-score with doxorubicin 1.12; viability z-score without drug 0.84.
4931432E15Rik (GeneID 70991) gave combined z-score class no change with or without drug; viability z-score with doxorubicin 1.12; viability z-score without drug 1.85.
Against Or14j5 (GeneID 258892) the deposit lists combined z-score class no change with or without drug; viability z-score with doxorubicin -0.45; viability z-score without drug -0.84.
With knock-down of Npy2r (GeneID 18167) the results were combined z-score class no change with or without drug; viability z-score with doxorubicin -0.22; viability z-score without drug -0.67.
Knock-down of Txlnb (GeneID 378431) came out at: combined z-score class no change with or without drug; viability z-score with doxorubicin 1.91; viability z-score without drug 0.51.
Depletion of Eif4h (GeneID 22384) gave: combined z-score class no change with or without drug; viability z-score with doxorubicin 0; viability z-score without drug 0.17.
C030018K18RIK gave combined z-score class no change with or without drug; viability z-score with doxorubicin 0.45; viability z-score without drug -1.18.
Silencing of Ctsa (GeneID 19025) came out at: combined z-score class no change with or without drug; viability z-score with doxorubicin -0.34; viability z-score without drug 0.51.
Against Or8c9 (GeneID 18323) the deposit lists combined z-score class no change with or without drug; viability z-score with doxorubicin 0.67; viability z-score without drug -0.17.
With knock-down of Rnf150 (GeneID 330812) the results were combined z-score class low cell count with doxorubicin only (active); viability z-score with doxorubicin -2.92; viability z-score without drug -0.84.
For Phf11d (GeneID 219132), the values are combined z-score class no change with or without drug; viability z-score with doxorubicin 1.12; viability z-score without drug -1.18.
Gsc (GeneID 14836) showed combined z-score class no change with or without drug; viability z-score with doxorubicin -0.22; viability z-score without drug 0.
Melk (GeneID 17279) showed combined z-score class no change with or without drug; viability z-score with doxorubicin 0.67; viability z-score without drug -0.17.
Samd14 (GeneID 217125) showed combined z-score class no change with or without drug; viability z-score with doxorubicin 0; viability z-score without drug -0.84.
Against Cdca2 (GeneID 108912) the deposit lists combined z-score class no change with or without drug; viability z-score with doxorubicin 0.11; viability z-score without drug -0.17.
Against Ermard (GeneID 381062) #1 the deposit lists combined z-score class no change with or without drug; viability z-score with doxorubicin 0.34; viability z-score without drug -0.34.
Against Ermard (GeneID 381062) #2, the entry reads combined z-score class no change with or without drug; viability z-score with doxorubicin -0.67; viability z-score without drug 0.
Knock-down of Megf9 (GeneID 230316) came out at: combined z-score class no change with or without drug; viability z-score with doxorubicin 0.45; viability z-score without drug 0.34.
For Mta3 (GeneID 116871) the deposit lists combined z-score class no change with or without drug; viability z-score with doxorubicin -0.67; viability z-score without drug 0.
After knock-down of Ppp2r1b (GeneID 73699) the results were combined z-score class no change with or without drug; viability z-score with doxorubicin -0.45; viability z-score without drug -0.84.
Arl3 (GeneID 56350) gave combined z-score class no change with or without drug; viability z-score with doxorubicin 0.9; viability z-score without drug -0.51.
Silencing of Naa60 (GeneID 74763) gave: combined z-score class no change with or without drug; viability z-score with doxorubicin -0.34; viability z-score without drug 0.84.
For Depdc1a (GeneID 76131) the deposit lists combined z-score class no change with or without drug; viability z-score with doxorubicin 0.9; viability z-score without drug 0.17.
Silencing of Npr3 (GeneID 18162) gave: combined z-score class high cell count with doxorubicin only; viability z-score with doxorubicin 2.25; viability z-score without drug 0.67.
Depletion of Cox7b (GeneID 66142) resulted in: combined z-score class no change with or without drug; viability z-score with doxorubicin -0.45; viability z-score without drug 1.01.
